Results on one molecule are retold here after paper PMC10699776.

These are yes or no findings as the source states them, for the method shown. In cells and extracts the contact can be indirect. Some entries that bind do so weakly or less than the wild type.

The target in this assay is T1, mCherry-RAD54L2^WT (UniProt Q9Y4B4).
T1 sequence: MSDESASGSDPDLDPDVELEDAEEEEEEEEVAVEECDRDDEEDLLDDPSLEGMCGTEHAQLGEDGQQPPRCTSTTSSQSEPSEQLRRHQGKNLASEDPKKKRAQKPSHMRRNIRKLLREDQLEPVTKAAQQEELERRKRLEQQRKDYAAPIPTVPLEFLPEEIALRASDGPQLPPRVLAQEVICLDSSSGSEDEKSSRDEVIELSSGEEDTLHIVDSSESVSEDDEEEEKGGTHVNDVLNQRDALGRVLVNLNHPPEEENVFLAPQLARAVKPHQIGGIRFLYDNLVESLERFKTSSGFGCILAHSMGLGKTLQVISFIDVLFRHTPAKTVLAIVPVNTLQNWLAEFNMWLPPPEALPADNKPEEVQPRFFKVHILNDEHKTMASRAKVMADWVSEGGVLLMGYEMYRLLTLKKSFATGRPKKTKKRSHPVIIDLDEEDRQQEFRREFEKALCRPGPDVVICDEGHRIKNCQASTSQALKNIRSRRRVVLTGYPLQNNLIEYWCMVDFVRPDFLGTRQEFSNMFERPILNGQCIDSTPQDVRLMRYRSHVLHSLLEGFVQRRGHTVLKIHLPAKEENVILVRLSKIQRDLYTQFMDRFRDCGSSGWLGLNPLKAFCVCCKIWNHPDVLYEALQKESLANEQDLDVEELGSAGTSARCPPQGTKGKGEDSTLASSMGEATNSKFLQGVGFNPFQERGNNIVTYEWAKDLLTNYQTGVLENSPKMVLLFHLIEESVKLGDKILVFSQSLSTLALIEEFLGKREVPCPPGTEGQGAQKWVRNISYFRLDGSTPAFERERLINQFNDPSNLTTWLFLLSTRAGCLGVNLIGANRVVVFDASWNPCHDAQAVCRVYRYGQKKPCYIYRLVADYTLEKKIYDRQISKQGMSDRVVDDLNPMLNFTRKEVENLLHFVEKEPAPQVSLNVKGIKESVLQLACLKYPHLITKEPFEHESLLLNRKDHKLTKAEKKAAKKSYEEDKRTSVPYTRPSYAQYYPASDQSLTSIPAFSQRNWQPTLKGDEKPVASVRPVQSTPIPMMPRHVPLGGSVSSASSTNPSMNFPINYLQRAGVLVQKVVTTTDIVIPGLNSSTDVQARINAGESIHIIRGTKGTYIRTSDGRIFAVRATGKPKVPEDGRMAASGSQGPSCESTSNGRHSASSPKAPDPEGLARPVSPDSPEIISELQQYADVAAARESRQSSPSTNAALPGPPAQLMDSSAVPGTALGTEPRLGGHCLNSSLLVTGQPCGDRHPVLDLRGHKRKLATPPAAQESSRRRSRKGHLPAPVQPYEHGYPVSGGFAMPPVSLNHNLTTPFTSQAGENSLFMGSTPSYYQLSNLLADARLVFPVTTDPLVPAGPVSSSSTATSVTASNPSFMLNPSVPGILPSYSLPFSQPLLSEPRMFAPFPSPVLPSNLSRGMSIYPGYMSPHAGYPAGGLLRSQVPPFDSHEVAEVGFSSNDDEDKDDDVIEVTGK
In words: co-IP; mCherry IP on RFP-Trap magnetic beads, 2 hours at 4°C, from benzonase-treated extracts of RPE-1 cells, untreated or treated with 100 μM etoposide for 1 hour (also G1- or S-phase synchronized cells); IP buffer 20 mM tris-HCl pH 7.5, 150 mM NaCl, 2 mM MgCl2, 10% glycerol, 0.5% NP-40, 20 mM NEM; Western blot.

B1: zinc finger protein associated with TDP2 and TOP2 (ZATT/ZNF451) (enzyme, UniProt Q9Y4E5 1-1061)
chain: MGDPGSEIIESVPPAGPEASESTTDENEDDIQFVSEGPLRPVLEYIDLVSSDDEEPSTSYTDENIKRKDHIDYQKDKVALTLARLARHVEVEKQQKEEKNRAFREKIDFQHAHGLQELEFIRGHSDTEAARLCVDQWLKMPGLKTGTINCGTKSSFRRGGHTWVSGKPILCPIMHCNKEFDNGHLLLGHLKRFDHSPCDPTITLHGPFFSSFACVVCYKKFVTQQQYRDHLFDKEATDDGHNNNLLPQIIQCFACPNCFLLFSRKEECSKHMSGKNHFHQSFKLGDNKGIAHPISFPSFAKKLLISLCKDVPFQVKCVACHKTLRSHMELTAHFRVHCRNAGPVAVAEKSITQVAEKFILRGYCPDCNQVFVDETSTQNHKQNSGHKVRVINSVEESVLLYCHSSEGNKDPSSDLHLLLDQSKFSSLKRTMSIKESSSLECIAIPKKKMNLKDKSHEGVACVQKEKSVVKTWFCECNQRFPSEDAVEKHVFSANTMGYKCVVCGKVCDDSGVIRLHMSRIHGGAHLNNFLFWCRTCKKELTRKDTIMAHVTEFHNGHRYFYEMDEVEGETLPSSSTTLDNLTANKPSSAITVIDHSPANSSPRGKWQCRICEDMFDSQEYVKQHCMSLASHKFHRYSCAHCRKPFHKIETLYRHCQDEHDNEIKIKYFCGLCDLIFNVEEAFLSHYEEHHSIDYVFVSEKTETSIKTEDDFPVIETSNQLTCGCRESYICKVNRKEDYSRCLQIMLDKGKLWFRCSLCSATAQNLTDMNTHIHQVHKEKSDEEEQQYVIKCGTCTKAFHDPESAQQHFHRKHCFLQKPSVAHFGSEKSNLYKFTASASHTERKLKQAINYSKSLDMEKGVENDLSYQNIEEEIVELPDLDYLRTMTHIVFVDFDNWSNFFGHLPGHLNQGTFIWGFQGGNTNWKPPLNCKIYNYLNRIGCFFLHPRCSKRKDAADFAICMHAGRLDEQLPKQIPFTILSGDQGFLELENQFKKTQRPAHILNPHHLEGDMMCALLNSISDTTKECDSDDNMGAKNTSIGEEFISTEDVELEEAIRRSLEEM
Regarding B1, the binding entry is on record as “binds”.
